Reference: US12180178B2, “Heteroaryl azole compound and pest control agent” (NIPPON SODA CO., LTD., priority 2018, dated 2024)
Some results were stated once for a whole list of compounds, not compound by compound.

Key:
Format in all cases: in vivo
Phyllotreta striolata = test: Test of Efficacy on Phyllotreta striolata (spray on Qing geng cai seedlings); conditions: 125 ppm; sprayed to Qing geng cai seedlings; adults; after 7 days
Protocol: (§1) 5 parts of the heteroaryl azole compound of the present invention, 93.6 parts of dimethylformamide, and 1.4 parts of polyoxyethylene alkyl aryl ether were mixed and dissolved to prepare emulsion (I) containing 5% of the active ingredient.
(§2) An insecticidal rate was calculated according to the following expression: Insecticidal rate (%)=(The number of dead insects/The number of tested insects)×100
The emulsion (I) was diluted with water such that the concentration of the compound of the present invention was 125 ppm to prepare a test chemical. The test chemical was sprayed to Qing geng cai seedlings (at the seventh true leaf stage) planted in 10-cm pots. The Qing geng cai seedlings were dried in air and then placed in a plastic cup. Ten Phyllotreta striolata adults were released thereto. The plastic cup was stored in a thermostat chamber having a temperature of 25° C. and a humidity of 65%. Life and death were determined after 7 days from the release of the insects, and the insecticidal rate was calculated. The test was conducted in duplicate.

Nilaparvata lugens = test: Test of Efficacy on Nilaparvata lugens (rice seedling dip); conditions: 125 ppm; young rice seedlings dipped 30 seconds; second instar larvae; after 7 days
Plutella xylostella = test: Test of Efficacy on Plutella xylostella (cabbage leaf dip); conditions: 125 ppm; cabbage leaves dipped 30 seconds; second instar larvae; after 3 days
Protocol: 5 parts of the heteroaryl azole compound of the present invention, 93.6 parts of dimethylformamide, and 1.4 parts of polyoxyethylene alkyl aryl ether were mixed and dissolved to prepare emulsion (I) containing 5% of the active ingredient. An insecticidal rate was calculated according to the following expression: Insecticidal rate (%)=(The number of dead insects/The number of tested insects)×100 The emulsion (I) was diluted with water such that the concentration of the compound of the present invention was 125 ppm. Cabbage leaves were dipped in the dilution for 30 seconds. The resulting cabbage leaves were placed in a petri dish. Five second instar larvae of Plutella xylostella were released thereto. The petri dish was placed in a thermostat chamber having a temperature of 25° C. and a humidity of 60%. Life and death were determined after 3 days from the release of the insects, and the insecticidal rate was calculated. The test was conducted in duplicate.

Aphis craccivora = test: Test of Efficacy on Aphis craccivora (spray on black-eyed peas); conditions: 125 ppm; sprayed to black-eyed peas; nymphs; after 4 days
Protocol: as §1, §2
Seedlings of black-eyed peas were raised in 10-cm pots. Aphis craccivora nymphs were inoculated onto primary leaves. The emulsion (I) was diluted with water such that the concentration of the compound of the present invention was 125 ppm. The dilution was sprayed to the black-eyed peas parasitized by the Aphis craccivora nymphs. The black-eyed peas were placed in a thermostat chamber having a temperature of 25° C. and a humidity of 60%. Life and death of Aphis craccivora were determined after 4 days from the spraying, and the insecticidal rate was calculated. The test was conducted in duplicate.

SMILES | insecticidal rate (Phyllotreta striolata) | insecticidal rate (Nilaparvata lugens) | insecticidal rate (Plutella xylostella) | insecticidal rate (Aphis craccivora)
CCS(=O)(=O)c1cc(C2CC2)cnc1-c1ncn(/C=C(\F)C(F)C(F)(F)F)c1C (racemic) [a-3] | ≥ 80% | ≥ 80% | ≥ 80% | 
CCS(=O)(=O)c1cc(C2CC2)cnc1-c1ncn(CC(F)(F)C(F)C(F)(F)F)c1C (racemic) [a-10] |  |  |  | ≥ 80%
CCS(=O)(=O)c1cc(C(F)(F)F)cnc1-c1ncn(/C=C(\F)C(F)(F)C(F)(F)F)c1C [a-4] |  | ≥ 80% | ≥ 80% | ≥ 80%
CCS(=O)(=O)c1cc(C(F)(F)F)cnc1-c1ncn(CC(F)(F)C(F)(F)C(F)(F)F)c1C [a-5] |  |  |  | ≥ 80%
CCS(=O)(=O)c1cccnc1-c1ncn(/C=C(\F)C(F)(F)C(F)(F)F)c1C [a-7] |  |  |  | ≥ 80%
CCS(=O)(=O)c1cccnc1-c1ncn(CC(F)(F)C(F)(F)C(F)(F)C(F)(F)F)c1C [a-8] |  |  |  | ≥ 80%
CCS(=O)(=O)c1cccnc1-c1ncn(CC(F)(F)C(F)(F)C(F)(F)F)c1C [a-9] |  |  |  | ≥ 80%
CCS(=O)(=O)c1cc(C2CC2)cnc1-c1ncn(/C=C(\F)C(F)(F)C(F)(F)F)c1C [a-13] | ≥ 80% | ≥ 80% | ≥ 80% | 
CCS(=O)(=O)c1cc(C2CC2)cnc1-c1ncn(/C=C(\F)C(F)(F)F)c1C [a-14] | ≥ 80% |  | ≥ 80% | ≥ 80%
CCS(=O)(=O)c1cc(-c2ncccn2)cnc1-c1ncn(CC(F)(F)C(F)(F)C(F)(F)C(F)F)c1C [a-15] |  |  | ≥ 80% | ≥ 80%
CCS(=O)(=O)c1cc(-c2cc(F)cc(F)c2)cnc1-c1ncn(/C=C(\F)C(F)(F)C(F)(F)F)n1 [b-3] | ≥ 80% |  | ≥ 80% | ≥ 80%
CCS(=O)(=O)c1cccnc1-c1ncn(/C=C(\F)C(F)(F)F)n1 [b-4] |  |  |  | ≥ 80%
CCS(=O)(=O)c1cccnc1-c1ncn(/C=C(\F)C(F)(F)C(F)(F)C(F)(F)F)n1 [b-5] |  |  |  | ≥ 80%
CCS(=O)(=O)c1cccnc1-c1ncn(/C=C(\F)C(F)(F)C(F)(F)F)n1 [b-8] | ≥ 80% |  |  | ≥ 80%
CCS(=O)(=O)c1cc(C2CC2)cnc1-c1ncn(/C=C(\F)C(F)(F)C(F)(F)F)n1 [b-10] | ≥ 80% |  | ≥ 80% | ≥ 80%
CCS(=O)(=O)c1cc(-c2ncccn2)cnc1-c1ncn(/C=C(\F)C(F)(F)C(F)(F)F)n1 [b-12] | ≥ 80% |  | ≥ 80% | ≥ 80%
CCS(=O)(=O)c1cc(-c2ncccn2)cnc1-c1ncn(CC(F)(F)C(F)(F)C(F)(F)F)n1 [b-13] | ≥ 80% |  |  | ≥ 80%
CCS(=O)(=O)c1cc(Br)cnc1-c1ncn(CC(F)(F)C(F)(F)C(F)(F)F)n1 [b-14] |  |  |  | ≥ 80%
CCS(=O)(=O)c1cc(Br)cnc1-c1ncn(/C=C(\F)C(F)(F)C(F)(F)C(F)F)n1 [b-20] |  |  |  | ≥ 80%
CCS(=O)(=O)c1cc(C2CC2)cnc1-c1ncn(/C=C(\F)C(F)(F)C(F)(F)C(F)F)n1 [b-21] |  |  | ≥ 80% | 
CCS(=O)(=O)c1cc(C2(C)CC2)cnc1-c1ncn(/C=C(\F)C(F)(F)C(F)(F)C(F)(F)F)n1 [b-22] |  |  | ≥ 80% | ≥ 80%
CCS(=O)(=O)c1cc(-c2ncccn2)cnc1-c1ncn(/C=C(\F)C(F)(F)C(F)(F)F)c1C [c-8] |  | ≥ 80% |  | 
CCS(=O)(=O)c1cc(-c2ncccn2)cnc1-c1ncn(/C=C(\F)C(F)(F)I)c1C [c-9] |  | ≥ 80% |  | 
CCS(=O)(=O)c1cc(-c2ccccn2)cnc1-c1ncn(-c2ccc(OC(F)(F)F)cc2)c1C [d-25] |  | ≥ 80% |  | 
